Columns and labels:
[1] = molecular target: T3 RNA polymerase (Bacteriophage T3) (UniProt P07659); experiment: activity in cells; settings: transcription of GFP in E. coli RTC 3-Counter, 37 C; protein in cells; protein details: gene from NCBI NC_003298.1; only the site is given
[2] = molecular target: T7 RNA polymerase (Bacteriophage T7) (UniProt P00573); experiment: activity in cells; settings: transcription of GFP or T3 RNAP in E. coli RTC counters, 37 C; protein in cells; protein details: gene from NCBI NC_001604.1; only the site is given

The chains behind the UniProt entries cited, without tags or fusion partners. Where a name states a change or a piece, a line headed by the entry shows the natural chain unless it says otherwise.
UniProt P07659: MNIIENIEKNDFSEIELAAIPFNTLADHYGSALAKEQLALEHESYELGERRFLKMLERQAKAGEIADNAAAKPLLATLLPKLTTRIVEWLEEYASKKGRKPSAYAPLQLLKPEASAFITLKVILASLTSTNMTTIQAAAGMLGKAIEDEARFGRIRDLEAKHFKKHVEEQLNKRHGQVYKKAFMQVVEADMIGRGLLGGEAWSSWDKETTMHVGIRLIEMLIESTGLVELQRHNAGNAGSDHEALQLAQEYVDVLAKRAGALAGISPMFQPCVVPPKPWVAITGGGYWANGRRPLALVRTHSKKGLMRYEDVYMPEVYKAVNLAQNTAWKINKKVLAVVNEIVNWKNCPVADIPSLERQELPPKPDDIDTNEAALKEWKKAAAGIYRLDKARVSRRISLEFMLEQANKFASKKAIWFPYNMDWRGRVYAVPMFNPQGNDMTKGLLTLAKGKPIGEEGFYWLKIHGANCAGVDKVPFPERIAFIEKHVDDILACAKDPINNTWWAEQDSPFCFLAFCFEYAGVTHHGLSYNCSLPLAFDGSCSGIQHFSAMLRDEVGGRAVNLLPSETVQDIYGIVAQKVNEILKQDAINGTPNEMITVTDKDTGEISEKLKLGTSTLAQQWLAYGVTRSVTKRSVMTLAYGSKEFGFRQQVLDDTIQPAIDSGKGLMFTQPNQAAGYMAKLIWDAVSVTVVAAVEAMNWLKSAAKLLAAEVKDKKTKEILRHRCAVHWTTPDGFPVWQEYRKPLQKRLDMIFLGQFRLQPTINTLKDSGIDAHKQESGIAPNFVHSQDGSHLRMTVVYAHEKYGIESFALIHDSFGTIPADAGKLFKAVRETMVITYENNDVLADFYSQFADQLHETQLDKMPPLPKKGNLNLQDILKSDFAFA
UniProt P00573: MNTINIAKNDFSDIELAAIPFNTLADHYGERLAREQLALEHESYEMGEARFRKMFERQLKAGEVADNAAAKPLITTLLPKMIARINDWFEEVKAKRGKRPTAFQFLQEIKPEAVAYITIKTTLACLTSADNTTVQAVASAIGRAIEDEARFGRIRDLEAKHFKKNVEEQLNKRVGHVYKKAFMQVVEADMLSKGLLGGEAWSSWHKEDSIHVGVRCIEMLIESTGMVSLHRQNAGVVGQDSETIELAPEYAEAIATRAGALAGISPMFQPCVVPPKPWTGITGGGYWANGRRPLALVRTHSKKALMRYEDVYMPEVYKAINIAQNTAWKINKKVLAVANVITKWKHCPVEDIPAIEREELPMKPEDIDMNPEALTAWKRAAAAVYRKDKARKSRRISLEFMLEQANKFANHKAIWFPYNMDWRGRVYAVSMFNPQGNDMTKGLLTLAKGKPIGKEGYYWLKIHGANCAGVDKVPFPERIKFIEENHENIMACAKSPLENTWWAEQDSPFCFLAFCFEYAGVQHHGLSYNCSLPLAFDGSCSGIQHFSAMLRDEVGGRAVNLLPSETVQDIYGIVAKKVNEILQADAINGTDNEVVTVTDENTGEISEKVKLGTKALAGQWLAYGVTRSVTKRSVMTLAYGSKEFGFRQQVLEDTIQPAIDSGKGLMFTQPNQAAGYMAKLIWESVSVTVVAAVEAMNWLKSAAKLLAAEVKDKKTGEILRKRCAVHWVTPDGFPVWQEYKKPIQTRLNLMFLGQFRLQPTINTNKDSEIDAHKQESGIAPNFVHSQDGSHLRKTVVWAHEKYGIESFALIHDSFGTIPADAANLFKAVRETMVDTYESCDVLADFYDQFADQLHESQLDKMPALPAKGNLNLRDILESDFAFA

Row | Sequence | functional effect [1] | functional effect [2]
1 | ATTAACCCTCACTAAAGGGAGA (double strand) [T3 promoter 14.3m] | active | 
2 | TAATACGACTCACTATAGGGAGA (double strand) [T7 promoter] |  | active

— US20120003630
